PubChem BioAssay AID504793, Drosophila RNAi Screening Center | 2011
In all, the deposit lists about 23,000 reagents; this is an unselected part of those with a known target gene and a result. Of all reagents, 62 (0.27%) are marked active. 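Calls come from follow-up tests whose scores are not deposited, so confirmed genes may have low counts here; counts are not normalised per plate.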 Raw values vary from plate to plate and are shown uncorrected.

Assay: 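Genes required for cells to halt at G2/M after double-strand DNA breaks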 (primary screen)
Cell system: Drosophila S2R+ cells
Reagent: long dsRNA against Drosophila genes, about 0.25 µg dsRNA per well
Time to read-out: 4 days of dsRNA, then 4 hours of drug before read-out
Challenge: doxorubicin 0.5 µM for 4 hours to cause double-strand breaks, in cells also given a low, harmless dose of dsRNA against nbs to sensitise the assay
Measured: 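Per-well count of mitotic cells stained for phospho-histone H3 after doxorubicin exposure, used as mitotic index; counts are raw and not normalised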
Reading the numbers: mitotic cells: higher = more cells in mitosis, weaker G2 arrest
Rule for the call: 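a call needs confirmation in secondary tests, with other dsRNAs and a check of mitotic timing without damage, not just a high primary count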
Meaning of the calls: active = confirmed in follow-up tests; inactive = not confirmed

{"target": "Dlip2", "dsRNA": "DRSC12346", "mitotic cells, replicate 1": 2, "activity call": "inactive"}
{"target": "CG12655", "dsRNA": "DRSC20678", "mitotic cells, replicate 1": 8, "activity call": "inactive"}
{"target": "GstO2", "dsRNA": "DRSC10691", "mitotic cells, replicate 1": 7, "activity call": "inactive"}
{"target": "GstO2", "dsRNA": "DRSC29069", "mitotic cells, replicate 1": 4, "activity call": "inactive"}
{"target": "Nup44A", "dsRNA": "DRSC07248", "mitotic cells, replicate 1": 8, "activity call": "inactive"}
{"target": "Nup44A", "dsRNA": "DRSC28141", "mitotic cells, replicate 1": 3, "activity call": "inactive"}
{"target": "Gr64b", "dsRNA": "DRSC08444", "mitotic cells, replicate 1": 2, "activity call": "inactive"}
{"target": "ATPsynF", "dsRNA": "DRSC04482", "mitotic cells, replicate 1": 8, "activity call": "inactive"}
{"target": "Trp1", "dsRNA": "DRSC03465", "mitotic cells, replicate 1": 4, "activity call": "inactive"}
{"target": "Trp1", "dsRNA": "DRSC24685", "mitotic cells, replicate 1": 9, "activity call": "inactive"}
{"target": "Nt5b", "dsRNA": "DRSC19976", "mitotic cells, replicate 1": 12, "activity call": "inactive"}
{"target": "Nt5b", "dsRNA": "DRSC19977", "mitotic cells, replicate 1": 5, "activity call": "inactive"}
{"target": "Nt5b", "dsRNA": "DRSC19978", "mitotic cells, replicate 1": 10, "activity call": "inactive"}
{"target": "Nt5b", "dsRNA": "DRSC22588", "mitotic cells, replicate 1": 10, "activity call": "inactive"}
{"target": "Nt5b", "dsRNA": "DRSC28223", "mitotic cells, replicate 1": 4, "activity call": "inactive"}
{"target": "CG17778", "dsRNA": "DRSC18504", "mitotic cells, replicate 1": 8, "activity call": "inactive"}
{"target": "Ykt6", "dsRNA": "DRSC17970", "mitotic cells, replicate 1": 5, "activity call": "inactive"}
{"target": "Ykt6", "dsRNA": "DRSC26017", "mitotic cells, replicate 1": 5, "activity call": "inactive"}
{"target": "lncRNA:Hsromega", "dsRNA": "DRSC22875", "mitotic cells, replicate 1": 15, "activity call": "inactive"}
{"target": "lncRNA:Hsromega", "dsRNA": "DRSC26039", "mitotic cells, replicate 1": 6, "activity call": "inactive"}
{"target": "lbm", "dsRNA": "DRSC07643", "mitotic cells, replicate 1": 1, "activity call": "inactive"}
{"target": "l(2)k14505", "dsRNA": "DRSC03106", "mitotic cells, replicate 1": 7, "activity call": "inactive"}
{"target": "osk", "dsRNA": "DRSC17023", "mitotic cells, replicate 1": 3, "activity call": "inactive"}

Not a retest: 3 of the entries above.
{"target": "ATPsynF", "dsRNA": "DRSC04482", "mitotic cells, replicate 1": 8, "activity call": "inactive"}
{"target": "Trp1", "dsRNA": "DRSC03465", "mitotic cells, replicate 1": 4, "activity call": "inactive"}
{"target": "Trp1", "dsRNA": "DRSC24685", "mitotic cells, replicate 1": 9, "activity call": "inactive"}
